Results are given in words; binding and its absence hold for the method and conditions named. Binding calls can cover weak binding; strength is not graded here. For some assays here: Binding seen in cells or lysates may run through a third protein.

By UniProt entry, the sequences of proteins in these tests, tags left out. Where a name states a change or a piece, a line headed by the entry shows the natural chain unless it says otherwise.
UniProt P06400: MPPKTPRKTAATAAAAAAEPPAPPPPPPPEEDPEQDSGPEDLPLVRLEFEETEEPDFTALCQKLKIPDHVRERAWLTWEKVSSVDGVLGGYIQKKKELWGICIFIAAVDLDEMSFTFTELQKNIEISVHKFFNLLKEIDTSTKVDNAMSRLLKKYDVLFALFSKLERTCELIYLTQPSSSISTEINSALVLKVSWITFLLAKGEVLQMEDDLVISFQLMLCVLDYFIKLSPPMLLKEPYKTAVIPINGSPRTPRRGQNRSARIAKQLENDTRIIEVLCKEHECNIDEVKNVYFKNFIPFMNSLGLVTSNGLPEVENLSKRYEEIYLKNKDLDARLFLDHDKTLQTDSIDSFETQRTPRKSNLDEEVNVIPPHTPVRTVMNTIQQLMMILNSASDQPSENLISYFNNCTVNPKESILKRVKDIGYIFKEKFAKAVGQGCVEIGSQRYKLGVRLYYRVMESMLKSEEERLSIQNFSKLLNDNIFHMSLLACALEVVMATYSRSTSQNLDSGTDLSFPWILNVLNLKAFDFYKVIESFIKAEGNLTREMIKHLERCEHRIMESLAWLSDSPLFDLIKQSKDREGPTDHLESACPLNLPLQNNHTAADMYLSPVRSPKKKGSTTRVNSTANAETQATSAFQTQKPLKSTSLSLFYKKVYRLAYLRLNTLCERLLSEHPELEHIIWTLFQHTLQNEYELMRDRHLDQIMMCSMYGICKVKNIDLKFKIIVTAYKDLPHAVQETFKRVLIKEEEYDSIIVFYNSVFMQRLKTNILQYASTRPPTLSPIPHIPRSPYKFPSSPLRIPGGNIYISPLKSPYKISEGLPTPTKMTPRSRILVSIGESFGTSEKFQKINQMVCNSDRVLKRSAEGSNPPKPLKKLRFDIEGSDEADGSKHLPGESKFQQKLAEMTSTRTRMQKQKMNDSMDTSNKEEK
UniProt Q08E68: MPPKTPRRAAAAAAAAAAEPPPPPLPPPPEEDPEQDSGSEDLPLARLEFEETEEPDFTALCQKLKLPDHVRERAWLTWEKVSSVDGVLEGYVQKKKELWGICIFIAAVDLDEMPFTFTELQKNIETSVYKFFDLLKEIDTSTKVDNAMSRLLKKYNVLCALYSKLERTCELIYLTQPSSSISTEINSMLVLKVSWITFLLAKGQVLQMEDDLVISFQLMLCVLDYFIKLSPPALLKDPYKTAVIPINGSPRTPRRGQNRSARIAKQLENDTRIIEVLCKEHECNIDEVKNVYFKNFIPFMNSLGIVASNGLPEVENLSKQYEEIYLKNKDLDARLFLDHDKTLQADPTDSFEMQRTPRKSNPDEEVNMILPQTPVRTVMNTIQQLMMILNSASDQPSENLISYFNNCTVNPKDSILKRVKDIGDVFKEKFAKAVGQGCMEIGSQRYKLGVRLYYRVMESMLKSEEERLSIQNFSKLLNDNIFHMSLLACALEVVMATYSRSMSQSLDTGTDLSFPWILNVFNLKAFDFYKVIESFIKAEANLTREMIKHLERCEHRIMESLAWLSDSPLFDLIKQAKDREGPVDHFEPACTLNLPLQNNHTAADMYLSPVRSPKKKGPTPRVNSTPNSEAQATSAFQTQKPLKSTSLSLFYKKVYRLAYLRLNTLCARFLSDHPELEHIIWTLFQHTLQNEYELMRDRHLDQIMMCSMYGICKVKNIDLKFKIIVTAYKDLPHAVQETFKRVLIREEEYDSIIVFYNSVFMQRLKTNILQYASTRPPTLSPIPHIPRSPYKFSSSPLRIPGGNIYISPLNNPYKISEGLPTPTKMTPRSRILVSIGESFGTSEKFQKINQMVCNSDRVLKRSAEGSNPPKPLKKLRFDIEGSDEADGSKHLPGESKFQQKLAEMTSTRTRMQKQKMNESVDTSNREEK
UniProt Q13547: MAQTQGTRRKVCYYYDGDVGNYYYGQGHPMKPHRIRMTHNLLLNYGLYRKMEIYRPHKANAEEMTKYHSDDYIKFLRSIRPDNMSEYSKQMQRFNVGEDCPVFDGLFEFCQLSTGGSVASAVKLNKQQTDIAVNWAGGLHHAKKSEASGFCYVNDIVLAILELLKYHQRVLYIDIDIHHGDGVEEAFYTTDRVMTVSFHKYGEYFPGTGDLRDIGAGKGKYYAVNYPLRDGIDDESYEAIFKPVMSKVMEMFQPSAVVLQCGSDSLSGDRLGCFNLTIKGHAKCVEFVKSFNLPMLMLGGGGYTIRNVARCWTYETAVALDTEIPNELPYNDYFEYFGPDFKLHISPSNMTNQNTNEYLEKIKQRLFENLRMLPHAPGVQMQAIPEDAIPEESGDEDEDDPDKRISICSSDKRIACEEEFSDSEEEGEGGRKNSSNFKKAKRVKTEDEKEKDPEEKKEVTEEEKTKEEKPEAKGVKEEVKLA
UniProt Q32PJ8: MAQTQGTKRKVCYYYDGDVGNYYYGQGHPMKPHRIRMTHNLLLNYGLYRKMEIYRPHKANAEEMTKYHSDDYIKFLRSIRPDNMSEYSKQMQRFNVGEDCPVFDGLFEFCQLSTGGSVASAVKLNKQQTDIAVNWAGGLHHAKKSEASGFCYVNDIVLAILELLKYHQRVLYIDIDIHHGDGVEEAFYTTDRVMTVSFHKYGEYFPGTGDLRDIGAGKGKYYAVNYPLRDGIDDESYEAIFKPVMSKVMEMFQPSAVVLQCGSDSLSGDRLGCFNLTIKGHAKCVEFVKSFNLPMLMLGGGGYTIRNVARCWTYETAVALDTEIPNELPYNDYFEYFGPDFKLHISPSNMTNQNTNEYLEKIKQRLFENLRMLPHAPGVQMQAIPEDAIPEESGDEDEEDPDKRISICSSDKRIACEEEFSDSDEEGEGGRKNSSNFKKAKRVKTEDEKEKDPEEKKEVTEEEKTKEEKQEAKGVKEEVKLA

The target of assay [1] is human Retinoblastoma-1 (RB) pocket domain (human) (UniProt P06400). The assay can be described thus: SPR; human RB immobilised on a CM5 chip by amine coupling (about 2000 RU); analytes 0–25 µM in HBS-EP (10 mM Hepes, 150 mM NaCl, 3 mM EDTA, 0.05% P20, pH 7.4), 30 µl per minute, 25 °C, Biacore T200; data fitted to the steady state affinity; both purified. In general terms: SPR reads the build-up and loss of mass on a sensor chip optically.

In assay [2] the target is RB, endogenous in bovine leukocyte lines (bovine (endogenous in BL20 and TBL20)) (UniProt Q08E68). Description: co-IP; RB immunoprecipitates from uninfected BL20 and T. annulata-infected TBL20 cells, blotted for HDAC1; endogenous proteins.

In the case of “full-length HDAC1, purified, recombinant (from UniProt Q13547 1-482)”, the binding result in assay [1] is “binds”.
In the case of “HDAC1, endogenous in bovine leukocyte lines (from UniProt Q32PJ8 1-482)”, the binding result in assay [2] was “binds”.

These data come from article PMC7055300, “Theileria parasites subvert E2F signaling to stimulate leukocyte proliferation” (Scientific Reports, 2020).
